Drawing on article PMC9482348, this text covers binding for 2 substances.

Sequences of proteins named here, by UniProt entry; tags and fusion partners are left off.
UniProt P62258: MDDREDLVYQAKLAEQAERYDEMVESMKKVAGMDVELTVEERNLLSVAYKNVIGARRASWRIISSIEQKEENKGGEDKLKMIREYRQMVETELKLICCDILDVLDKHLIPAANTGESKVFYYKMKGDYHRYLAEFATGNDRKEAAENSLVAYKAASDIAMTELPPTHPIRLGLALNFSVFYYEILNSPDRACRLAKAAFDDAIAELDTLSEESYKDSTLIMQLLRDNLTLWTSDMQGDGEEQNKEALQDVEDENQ

Experiment [1] has as its target T1, HA-tagged iRhom2 wild type (iRhom2^WT), in iRhom1/2 DKO A549 cells (UniProt Q6PJF5).
T1 sequence: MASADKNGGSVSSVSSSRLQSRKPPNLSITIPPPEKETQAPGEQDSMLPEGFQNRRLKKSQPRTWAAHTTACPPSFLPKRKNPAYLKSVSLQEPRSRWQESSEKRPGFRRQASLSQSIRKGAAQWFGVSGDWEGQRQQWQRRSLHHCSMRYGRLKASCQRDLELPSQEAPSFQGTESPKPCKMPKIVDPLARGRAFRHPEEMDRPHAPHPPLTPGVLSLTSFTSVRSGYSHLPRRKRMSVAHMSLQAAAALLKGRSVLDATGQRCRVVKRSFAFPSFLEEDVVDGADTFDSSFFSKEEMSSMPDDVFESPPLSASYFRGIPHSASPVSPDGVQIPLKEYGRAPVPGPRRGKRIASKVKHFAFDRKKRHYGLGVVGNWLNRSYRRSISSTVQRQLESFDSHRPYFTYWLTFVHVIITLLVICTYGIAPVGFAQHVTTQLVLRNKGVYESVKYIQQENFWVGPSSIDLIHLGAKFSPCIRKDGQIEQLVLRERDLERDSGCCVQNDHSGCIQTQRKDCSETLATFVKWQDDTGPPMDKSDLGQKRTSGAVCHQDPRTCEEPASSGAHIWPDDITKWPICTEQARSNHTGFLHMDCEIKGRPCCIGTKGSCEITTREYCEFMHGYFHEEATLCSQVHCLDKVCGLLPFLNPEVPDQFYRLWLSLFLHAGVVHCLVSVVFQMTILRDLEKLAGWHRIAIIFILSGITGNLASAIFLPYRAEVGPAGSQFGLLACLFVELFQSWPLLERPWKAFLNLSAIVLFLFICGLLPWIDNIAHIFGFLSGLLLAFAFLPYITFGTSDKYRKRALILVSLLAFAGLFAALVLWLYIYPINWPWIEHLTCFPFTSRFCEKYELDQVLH
In words: co-IP; anti-HA magnetic beads on cleared Triton X-100 lysates (1% Triton X-100, 150 mM NaCl, 50 mM Tris-HCl pH 7.5, PhosSTOP), at least 2 h at 4°C; iRhom1/2 DKO A549 cells stably expressing HA-iRhom2^WT or iRhom2^pMUT; blots for 14-3-3ε, HA and actin.

The target in experiment [2] is T2, HA-tagged iRhom2 wild type (iRhom2^WT), in iRhom1/2 DKO HEK293T cells (UniProt Q6PJF5).
T2 sequence: T1 sequence
The experiment is described as follows: co-IP; anti-HA magnetic beads on cleared Triton X-100 lysates (1% Triton X-100, 150 mM NaCl, 50 mM Tris-HCl pH 7.5, PhosSTOP), at least 2 h at 4°C; iRhom1/2 DKO HEK293T cells with HA-iRhom2^WT, transfected with GFP or GFP-KRAS^G12V, with or without 10 μM U0126 for 2 h; blots for 14-3-3ε, ADAM17, HA and ….

Results are given in words; binding and its absence hold for the method and conditions named. In cells and extracts the contact can be indirect. Some results given as binding are weak or reduced against the parent protein; the word gives no strength. Sequences can lack the tags named with a protein.

Consider “14-3-3 epsilon, endogenous in A549 cells (from UniProt P62258 1-255)”, for which the binding result in experiment [1] is on record as “binds”.
Turning to “14-3-3 epsilon, endogenous in HEK293T cells (from UniProt P62258 1-255)”, the binding result in experiment [2] was “binds”.
